{
  "source": "paper doi:10.1101/2020.02.20.955922",
  "note": "No constants are given. Whether binding was seen depends on the method and setting. Binding seen in cells or lysates may run through a third protein. These calls come from enrichment with a bait or labelling near it, and not all partners need be listed. Sequences can lack the tags named with a protein.",
  "data": [
    {"target": "T1, TSN2-TAPa (Tudor Staphylococcal Nuclease 2 with C-terminal TAPa tag) (Arabidopsis thaliana) (UniProt Q9FLT0)", "T1 sequence": "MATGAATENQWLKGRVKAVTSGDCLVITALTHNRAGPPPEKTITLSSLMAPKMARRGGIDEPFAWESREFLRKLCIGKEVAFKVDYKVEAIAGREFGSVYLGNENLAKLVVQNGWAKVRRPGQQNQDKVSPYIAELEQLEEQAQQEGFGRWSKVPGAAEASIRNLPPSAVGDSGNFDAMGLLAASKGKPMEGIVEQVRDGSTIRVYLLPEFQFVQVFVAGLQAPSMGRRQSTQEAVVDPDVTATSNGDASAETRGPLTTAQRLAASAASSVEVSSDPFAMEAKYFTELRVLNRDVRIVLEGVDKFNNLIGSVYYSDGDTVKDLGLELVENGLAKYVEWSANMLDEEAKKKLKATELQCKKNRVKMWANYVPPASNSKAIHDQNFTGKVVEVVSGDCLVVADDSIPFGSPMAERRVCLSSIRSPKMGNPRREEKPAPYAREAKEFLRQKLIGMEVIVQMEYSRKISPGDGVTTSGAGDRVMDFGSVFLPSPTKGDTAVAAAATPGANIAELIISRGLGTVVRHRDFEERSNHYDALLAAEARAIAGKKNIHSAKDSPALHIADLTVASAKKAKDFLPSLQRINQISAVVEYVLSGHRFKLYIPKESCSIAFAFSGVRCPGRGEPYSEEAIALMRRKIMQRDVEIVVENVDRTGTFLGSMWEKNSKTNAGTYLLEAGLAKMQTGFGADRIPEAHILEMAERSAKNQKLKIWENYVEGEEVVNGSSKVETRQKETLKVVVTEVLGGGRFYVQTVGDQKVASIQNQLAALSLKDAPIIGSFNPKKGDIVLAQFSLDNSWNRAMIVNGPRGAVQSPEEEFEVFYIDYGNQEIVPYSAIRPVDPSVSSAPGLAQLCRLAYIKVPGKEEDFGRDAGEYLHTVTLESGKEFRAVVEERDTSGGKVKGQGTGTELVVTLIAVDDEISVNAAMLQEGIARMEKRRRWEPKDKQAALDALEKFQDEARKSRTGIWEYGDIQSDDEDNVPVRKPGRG", "assay": "affinity purification with mass spectrometry", "values": [
      {"molecule": "Rbp47", "binding": "binds"},
      {"molecule": "RPS6", "binding": "binds"},
      {"molecule": "PATL1", "binding": "binds"},
      {"molecule": "SKP1", "binding": "binds"},
      {"molecule": "IF4A3", "binding": "binds"},
      {"molecule": "MC1", "binding": "binds"},
      {"molecule": "HSP70", "binding": "binds"},
      {"molecule": "TCTP", "binding": "binds"},
      {"molecule": "TSN1 (endogenous) (protein, UniProt Q8VZG7 1-991) MATGAENQWLKGRVKAVTSGDCLVITALSHNRAGPPPEKTITFSSLMAPKMARRGGIDEPFAWESKEFLRKLCIGKEVAFKVDYKVEAIAGREFGSVFLGNENLAKLVVKTGWAKVREPGQQNQDKVSPYIKELLQLEELAKQEGYGRWSKVPGAAEASIRNLPPSAIGDSAGFDAMGLLAANKGKPMEGIVEQVRDGSTIRVYLLPEFQFVQVFVAGVQAPSMGRRTTNGSVVETVPDEPNGDVSAESRGPLTTAQRLAASAASSVEVSSDPFATEAKYFTEHRVLSRDVRIVLEGVDKFNNLIGSVHYSDGETVKDLGLELVENGLAKFVEWSANMMEEEAKKKLKAAELQCKKDKVKMWANYVPPATNSKAIHDQNFTGKVVEVVSGDCLIVADDAVPFGSPAAERRVCLSSIRSPKMGNPRREEKPAPYAREAREFLRQRLIGKQVIVQMEYSRKVTQGDGPTTSGAADRFMDFGSVFLPSAAKADSDEVTAPPAAAIAGSQPVGVNIAELVLVRGFGNVVRHRDFEERSNHYDALLAAEARALAGKKGIHSAKESPAMHITDLTVSAAKKAKDFLPSLQRIRRIPAVVEYVLSGHRFKLYIPKITCSIAFSFSGVRCPGRGEPYSEEAISVMRRRIMQRDVEIEVETVDRTGTFLGSMWESRTNVATVLLEAGLAKMQTSFGADRIAEAHLLEQAERSAKNQKLKIWENYVEGEEVSNGNTNTVETRQKETLKVVVTEVLGGGRFYVQSAGDQKIASIQNQLASLSIKDAPIIGSFNPKRGDIVLAQFSLDNSWNRAMIVTAPRAAVQSPDEKFEVFYIDYGNQETVPYSAIRPIDPSVSAAPGLAQLCRLAYIKVPSLEDDFGPEAGEYLHTVTLGSGKEFKAVIEERDTSGGKVKGQGTGTEFVVTLIAVDDEISVNAAMLQEGIARMEKRQKWGHKGKQAALDALEKFQEEARKSRIGIWQYGDIESDDEDTGPARKPAGGRR", "binding": "binds"},
      {"molecule": "RHM2 (protein, UniProt Q9LPG6 1-667) MDDTTYKPKNILITGAAGFIASHVANRLIRNYPDYKIVVLDKLDYCSDLKNLDPSFSSPNFKFVKGDIASDDLVNYLLITENIDTIMHFAAQTHVDNSFGNSFEFTKNNIYGTHVLLEACKVTGQIRRFIHVSTDEVYGETDEDAAVGNHEASQLLPTNPYSATKAGAEMLVMAYGRSYGLPVITTRGNNVYGPNQFPEKMIPKFILLAMSGKPLPIHGDGSNVRSYLYCEDVAEAFEVVLHKGEIGHVYNVGTKRERRVIDVARDICKLFGKDPESSIQFVENRPFNDQRYFLDDQKLKKLGWQERTNWEDGLKKTMDWYTQNPEWWGDVSGALLPHPRMLMMPGGRLSDGSSEKKDVSSNTVQTFTVVTPKNGDSGDKASLKFLIYGKTGWLGGLLGKLCEKQGITYEYGKGRLEDRASLVADIRSIKPTHVFNAAGLTGRPNVDWCESHKPETIRVNVAGTLTLADVCRENDLLMMNFATGCIFEYDATHPEGSGIGFKEEDKPNFFGSFYSKTKAMVEELLREFDNVCTLRVRMPISSDLNNPRNFITKISRYNKVVDIPNSMTVLDELLPISIEMAKRNLRGIWNFTNPGVVSHNEILEMYKNYIEPGFKWSNFTVEEQAKVIVAARSNNEMDGSKLSKEFPEMLSIKESLLKYVFEPNKRT", "binding": "binds"},
      {"molecule": "IF4E5 (protein, UniProt Q9FK59 1-221) MEVLDRRDDEIRDSGNMDSIKSHYVTDSVSEERRSRELKDGDHPLRYKFSIWYTRRTPGVRNQSYEDNIKKMVEFSTVEGFWACYCHLARSSLLPSPTDLHFFKDGIRPLWEDGANCNGGKWIIRFSKVVSARFWEDLLLALVGDQLDDADNICGAVLSVRFNEDIISVWNRNASDHQAVMGLRDSIKRHLKLPHAYVMEYKPHDASLRDNSSYRNTWLRG", "binding": "binds"},
      {"molecule": "SnRK1.1 (endogenous) (protein, UniProt Q38997 1-512) MDGSGTGSRSGVESILPNYKLGRTLGIGSFGRVKIAEHALTGHKVAIKILNRRKIKNMEMEEKVRREIKILRLFMHPHIIRLYEVIETPTDIYLVMEYVNSGELFDYIVEKGRLQEDEARNFFQQIISGVEYCHRNMVVHRDLKPENLLLDSKCNVKIADFGLSNIMRDGHFLKTSCGSPNYAAPEVISGKLYAGPEVDVWSCGVILYALLCGTLPFDDENIPNLFKKIKGGIYTLPSHLSPGARDLIPRMLVVDPMKRVTIPEIRQHPWFQAHLPRYLAVPPPDTVQQAKKIDEEILQEVINMGFDRNHLIESLRNRTQNDGTVTYYLILDNRFRASSGYLGAEFQETMEGTPRMHPAESVASPVSHRLPGLMEYQGVGLRSQYPVERKWALGLQSRAHPREIMTEVLKALQDLNVCWKKIGHYNMKCRWVPNSSADGMLSNSMHDNNYFGDESSIIENEAAVKSPNVVKFEIQLYKTRDDKYLLDLQRVQGPQFLFLDLCAAFLAQLRVL", "binding": "binds"},
      {"molecule": "SnRK1.2 (endogenous) (protein, UniProt P92958 1-512) MDHSSNRFGNNGVESILPNYKLGKTLGIGSFGKVKIAEHVVTGHKVAIKILNRRKIKNMEMEEKVRREIKILRLFMHPHIIRQYEVIETTSDIYVVMEYVKSGELFDYIVEKGRLQEDEARNFFQQIISGVEYCHRNMVVHRDLKPENLLLDSRCNIKIADFGLSNVMRDGHFLKTSCGSPNYAAPEVISGKLYAGPEVDVWSCGVILYALLCGTLPFDDENIPNLFKKIKGGIYTLPSHLSSEARDLIPRMLIVDPVKRITIPEIRQHRWFQTHLPRYLAVSPPDTVEQAKKINEEIVQEVVNMGFDRNQVLESLRNRTQNDATVTYYLLLDNRFRVPSGYLESEFQETTDSGSNPMRTPEAGASPVGHWIPAHVDHYGLGARSQVPVDRKWALGLQSHAHPREIMNEVLKALQELNVCWKKIGHYNMKCRWVPGLADGQNTMVNNQLHFRDESSIIEDDCAMTSPTVIKFELQLYKAREEKYLLDIQRVNGPQFLFLDLCAAFLTELRVI", "binding": "binds"},
      {"molecule": "UBP1c (protein, UniProt Q9LJH8 1-427) MQNPRLKQHQQQQQQQAMMQQQALMQQHSLYHPGVLAPPQLEPVPSGNLPPGFDPSTCRSVYVGNIHTQVTEPLLQEIFTSTGPVESSKLIRKDKSSYGFVHYFDRRSAALAILSLNGRHLFGQPIKVNWAYATGQREDTSSHFNIFVGDLSPEVTDATLYQSFSVFSSCSDARVMWDQKTGRSRGFGFVSFRNQQDAQTAINEMNGKWLSSRQIRCNWATKGATSGDDKLSSDGKSVVELTTGSSEDGKETLNEETPENNSQFTTVYVGNLAPEVTQLDLHRYFHALGAGVIEEVRVQRDKGFGFVRYNTHPEAALAIQMGNTQPYLFNRQIKCSWGNKPTPPGTASNPLPPPAPAPVPGLSAADLLNYERQLALSKMASVNALMHQQGQHPLRQAHGINAAGATAAMYDGGFQNVAAAQQLMYYQ", "binding": "binds"},
      {"molecule": "VCS (protein, UniProt Q9LTT8 1-1344) MASSPGNTNPHNTPPFDLGILFKPSSNPYPPPAASYPPPTGPFLHNQYDQQHYAPPGISAQPSPVTQQQQDVSSSSAATNLHPQRTLSYPTPPLNLQSPRSNHNPGTHILALLNNTNNGAPVANQEPSHQLPVVNHNEIARSFPGGSGPIRVPSCKLPKGRRLIGEHAVYDVDVRLQGEIQPQLEVTPITKYGSDPQLVVGRQIAVNKVYICYGLKGGNIRVLNINTALRSLFRGHSQRVTDMAFFAEDVDMLASVSLDGKVFVWKISEGSEGEDQPQITGKIVLALQILGEEDTKHPRVCWHCHKQEILVVSIGKHVLRIDTTKVGRGEVFSAEAPLQCPLDKLIDGVQIVGKHDGEVTDLSMCQWMTTRLVSSSVDGTIKIWQDRKAQPLVVLRPHDGHPVSSATFVTSPERPDHIILITGGPLNREMKIWVSAGEEGWLLPADAESWRCTQTLDLKSSTEPRAEEAFFNQVIALSEAGLLLLANAKRNALYAVHLDYGSSPVGTRMDYLSEFTVTMPILSFIGTNDPPEEPIVKVYCVQTLAIQQYTLDLCLCLPPPIENMGLEKSDSSVSREANLVEGMSEPSGLKPTDLPSVDSVPKPSIIVNRSESANKLSFPSAEATSQAIVPPNGEPKTSGLPSQTSGAGSAYATLPQLPLSPRLSSKLSGYHTPVEAIEPVIPHHELGGKTPSADYSVDRQMDAVGERNLDVSSVEEISRSKDSNVTPDDDVSGMRSPSAFFKHPTHLVTPSEILMGVSSAEASITTEDRRDRDANIQDVNNDPRDTEVEVKEISEARSTQNGEINDHDETENCTSENREKVFCSQVSNLSTEMARDCYPSTEGTFIPGESKAYGQPIKAGDESGVDSRGGPAKLLKGKKQKAKNSQGPGLSSTSSNVANLADSFNEQSQSLSHPMTDLLPQLLAMQETMNQVMASQKEMQRQLSNAATGPIGKESKRLEVALGRMIEKSSKSNADALWARIQEETVKNEKALRDHAQQIVNATTNFMSKELNAMFEKTIKKELAAIGPALARSVVPVIEKTVSSAITESFQRGIGDKAVNQLDKSVNIKLEATVARQIQAQFQTSGKQALQEGLRSSVESSVIPSFEKACKAMFDQIDSAFQKGIAEHTNAAQQRFDSGHSQLAHTLKESITSASSVAQALSRELAETQRNLLALAAAGANSGGSNSLVTQLSGGPLGALLEKVEAPMDPTTELSRLISERKYEESFTSALQRSDVSIVSWLCSQVDLRGLLAMNPLPLSQGVLLSLLQQLACDISKDTSRKLAWMTDVVAAINPSDQMIAVHARPIFEQVYQILHHHRNAPGSDVSAIRLIMHVINSMLMGCK", "binding": "binds"}
    ]}
  ]
}
